Measurements from patent US10689366B2, “Compounds for MALT1 degredation” (Cornell University, priority 2016, dated 2020).
At least one compound was matched to its structure with a doubt left.

Target: T1, MALT1 (Homo sapiens, UniProt Q9UDY8)
T1 sequence (Q9UDY8 1-824): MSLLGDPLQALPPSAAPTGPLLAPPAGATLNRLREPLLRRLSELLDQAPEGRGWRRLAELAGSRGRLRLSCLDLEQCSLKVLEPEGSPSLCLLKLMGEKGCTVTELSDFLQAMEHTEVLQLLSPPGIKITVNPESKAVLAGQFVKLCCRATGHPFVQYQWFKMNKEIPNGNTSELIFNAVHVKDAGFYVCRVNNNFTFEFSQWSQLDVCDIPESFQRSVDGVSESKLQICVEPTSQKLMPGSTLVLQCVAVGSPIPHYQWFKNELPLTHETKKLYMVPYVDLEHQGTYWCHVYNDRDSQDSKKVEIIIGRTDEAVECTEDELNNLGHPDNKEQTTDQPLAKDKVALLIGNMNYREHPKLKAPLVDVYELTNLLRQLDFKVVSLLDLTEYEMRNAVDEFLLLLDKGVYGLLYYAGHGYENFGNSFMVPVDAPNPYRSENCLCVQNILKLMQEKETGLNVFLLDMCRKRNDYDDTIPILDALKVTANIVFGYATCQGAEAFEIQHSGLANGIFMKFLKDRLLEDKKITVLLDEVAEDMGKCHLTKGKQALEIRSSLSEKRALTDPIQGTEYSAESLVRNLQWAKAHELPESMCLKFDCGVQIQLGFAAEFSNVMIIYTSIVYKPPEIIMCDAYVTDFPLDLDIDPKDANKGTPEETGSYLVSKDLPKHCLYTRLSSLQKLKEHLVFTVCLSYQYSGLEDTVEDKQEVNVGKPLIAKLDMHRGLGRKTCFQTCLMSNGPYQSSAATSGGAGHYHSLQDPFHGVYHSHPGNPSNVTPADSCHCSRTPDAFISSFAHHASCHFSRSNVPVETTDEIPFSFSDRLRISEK
Test: MALT1 degradation assay (Western blot) in OCI-Ly3 cells
Assay type: cell-based
Design: endogenous in cells; host or cells: OCI-Ly3
Conditions: 48 hours, normalized to Actin, relative to vehicle treated cells
Description: In the experiments, OCI-Ly3 cells were grown for 6 hours in the presence of the indicated concentrations of Examples 1-6, 9, and 10. Proteins were extracted, analyzed by Western blot, and membranes were immunoblotted for MALT1, CRBN, and Actin. Table 3 provides the results of experimental data obtained from the example compounds of the present disclosure. In particular, OCI-Ly3 cells were grown for 48 hours in the presence of the indicated concentrations of Examples 1-19. Proteins were extracted, analyzed by Western blot, and membranes were immunoblotted for MALT1, CRBN, and Actin. Western blot bands were quantified using Image Lab software. Results were normalized to Actin expression and presented as % MALT1 degradation relative to vehicle treated cells.

CO[C@@H](C)c1c(NC(=O)Nc2cc(Cl)cnc2OCCNC(=O)CCOCCNc2cccc3c2C(=O)N(C2CCC(=O)NC2=O)C3=O)cnc2cc(Cl)nn12 (stereo partly drawn) [Example 13, N-(2-((5-Chloro-3-(3-(2-chloro-7-((S)-1-methoxyethyl)pyrazolo[1,5-a]pyrimidin-6-yl)ureido)pyridin-2-yl)oxy)ethyl)-3-(2-((2-(2,6-dioxopiperidin-3-yl)-1,3-dioxoisoindolin-4-yl)amino)ethoxy)propanamide]
% MALT1 Degradation at 1 μM: no degradation
